Experimental data as given in PubChem BioAssay AID2685 (National Center for Advancing Translational Sciences (NCATS), 2010).
This is one part of the list. The main result of the screen is listed elsewhere. These columns were measured beside it and carry no call. Compounds called inactive in the main read-out are mostly missing here. Potencies come from curve fits of mixed quality, noted in brackets.

Experiment: qHTS Assay for Lipid Storage Modulators in Drosophila S3 Cells;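 on cell number change: cells counted by Cell Tracker Red CMTPX staining in the red channel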
Conditions: BODIPY lipid droplet fluorescence, 18-24 h; for cell number change: measured here: cell count max response, cells fed with added oleic acid
Outline: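 Drosophila S3 cells got compounds at several concentrations plus oleic acid (400 uM solution). Laser-scanning cytometry with 488 nm excitation read lipid droplets at 500-530 nm and cells at 575-640 nm. Percent activity was relative to 20 uM Triacsin C.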

[1] = measured here: cell number channel AC50, cells fed with added oleic acid
[2] = measured here: lipid fluorescence (Fed channel) AC50, cells fed with added oleic acid

Row | SMILES | cell number change | AC50 [1] | AC50 [2]
1 | Clc1ccc(OCCn2c(-c3ccco3)nc3ccccc32)cc1 | 41.9% | 20.6 µM [rising, single point] | 29.1 µM [rising, single point]
2 | CC(C)C(=O)NC(=S)N1CCc2ccccc21 | 17.9% | 2.06 µM [rising, partial curve, poor fit] | 1.84 µM [rising, full curve, poor fit]
3 | COc1ccccc1/C=N/Nc1cc(C)nc2ccc(C)cc12 | 19.4% |  | 1.16 µM [falling, full curve]
4 | O=C(CCNC(=O)c1ccc(Br)cc1)Nc1ccccc1N1CCCCC1 | 12.4% | 2.06 µM [rising, partial curve] | 0.517 µM [rising, full curve, poor fit]
5 | CC(=O)c1cccc(N(CC(=O)NC2CCCCC2)C(=O)CCC(=O)Nc2nc(C)cs2)c1 | -6.41% |  | 
6 | O=C(CN(Cc1ccccc1Cl)C(=O)Cn1nnc(-c2cccs2)n1)NCC1CCCO1 (stereo not given) | 42.8% | 20.6 µM [rising, single point] | 
7 | COc1ccc(-c2nnc3sc(C4CCCCC4)nn23)cc1OC | 30.1% | 0.517 µM [rising, full curve] | 2.59 µM [rising, partial curve]
8 | CC(C)(C)c1ccc(CCC(CC(=O)O)CC(=O)O)cc1 | -11.7% | 6.51 µM [falling, single point] | 6.51 µM [falling, partial curve, poor fit]
9 | Cc1nc2ccc(F)cc2cc1C(=O)Nc1cccc(Cl)c1C | -0.58% |  | 
10 | CC(C)c1ccc(Nc2nnc(SC3CCOC3=O)s2)cc1 (stereo not given) | 10.8% |  | 14.6 µM [rising, partial curve]
11 | CC(C)Cc1c(O)nc(SCC(=O)N2CCCCCC2)[nH]c1=O | -19.7% |  | 
12 | CN(C(=O)c1ccc(NC(=O)Cc2cccc(NC(=O)C3CCCN(C(=O)C4CC4)C3)c2)cc1)C1CCCC1 (stereo not given) | -6.5% |  | 
13 | N#Cc1cnc2sc3ccccc3n2c1=N | 12.9% |  | 0.146 µM [rising, full curve, poor fit]
14 | CN1CCOC(=O)/C1=N/Nc1cc(Cl)ccc1Cl | 25.1% |  | 29.1 µM [rising, single point]
15 | COC(=O)c1ccc(CSc2nc3c(c(=O)n2-c2ccccc2)SCC3)o1 | -7.99% |  | 
16 | Cc1ccc(S(=O)(=O)N(C)c2ccc(C(=O)N3CCN(Cc4ccc5c(c4)OCO5)CC3)cc2)cc1 |  | 0.731 µM [rising, single point] | 
17 | O=C(c1cccs1)N1CCN(c2nc3ccc([N+](=O)[O-])cc3s2)CC1 | 24.1% |  | 0.146 µM [rising, full curve]
18 | COc1ccc(C(=O)c2coc3ccc(O)c(CN4CCCC4)c23)cc1 | -5.98% |  | 25.9 µM [falling, single point]

From entry 7 to 14, copied from above:
Row | SMILES | cell number change | AC50 [1] | AC50 [2]
7 | COc1ccc(-c2nnc3sc(C4CCCCC4)nn23)cc1OC | 30.1% | 0.517 µM [rising, full curve] | 2.59 µM [rising, partial curve]
8 | CC(C)(C)c1ccc(CCC(CC(=O)O)CC(=O)O)cc1 | -11.7% | 6.51 µM [falling, single point] | 6.51 µM [falling, partial curve, poor fit]
9 | Cc1nc2ccc(F)cc2cc1C(=O)Nc1cccc(Cl)c1C | -0.58% |  | 
10 | CC(C)c1ccc(Nc2nnc(SC3CCOC3=O)s2)cc1 (stereo not given) | 10.8% |  | 14.6 µM [rising, partial curve]
11 | CC(C)Cc1c(O)nc(SCC(=O)N2CCCCCC2)[nH]c1=O | -19.7% |  | 
12 | CN(C(=O)c1ccc(NC(=O)Cc2cccc(NC(=O)C3CCCN(C(=O)C4CC4)C3)c2)cc1)C1CCCC1 (stereo not given) | -6.5% |  | 
13 | N#Cc1cnc2sc3ccccc3n2c1=N | 12.9% |  | 0.146 µM [rising, full curve, poor fit]
14 | CN1CCOC(=O)/C1=N/Nc1cc(Cl)ccc1Cl | 25.1% |  | 29.1 µM [rising, single point]

Additional compounds follow:

Row | SMILES | cell number change | AC50 [1] | AC50 [2]
19 | C=CCNC(=O)CCCOc1cccc(C)c1 | -1.42% |  | 2.31 µM [falling, full curve, poor fit]
20 | Cn1ccc(NC(=O)Nc2ccc(Cl)cc2)n1 | -41.7% | 29.1 µM [falling, single point] | 
21 | O=c1cc(CNc2cc(Cl)ccc2Cl)nc2sccn12 | -12.8% |  | 29.1 µM [falling, single point]
22 | CCOC(=O)/C=C1\NC(=O)C(C)S1 (stereo not given) | -41.7% | 29.1 µM [falling, single point] | 25.9 µM [falling, single point]
23 | CCN(CC)S(=O)(=O)c1cccc(C(=O)OCC(=O)C23CC4CC(CC(C4)C2)C3)c1 | -22.5% |  | 1.64 µM [falling, partial curve]
24 | O=C(CCN1CCN(CCO)CC1)Nc1ccc(F)c(F)c1 |  |  | 8.2 µM [falling, partial curve]
25 | COC(=O)C1=C(C(=O)OC)SC2(S1)C(C(=O)OC)=C(C(=O)OC)SC1=C2c2cc(C)ccc2NC1(C)C |  | 0.411 µM [rising, full curve] | 
26 | Cc1ccc(S(=O)(=O)Cc2ccc(C(=O)NCc3cccs3)o2)cc1 | 105% | 16.4 µM [rising, partial curve] | 13 µM [rising, partial curve]
27 | COc1ccc(C(=O)N2CCC(C(=O)Nc3ccccc3OC)CC2)cc1 |  |  | 0.58 µM [falling, single point]
28 | Cc1onc(-c2c(Cl)cccc2Cl)c1C(=O)NCC1CCCO1 (stereo not given) | -233% | 29.1 µM [falling, partial curve] | 23.1 µM [falling, partial curve]
29 | Cc1cccc(-n2c(SCc3ccc([N+](=O)[O-])cc3)nnc2-c2c[nH]c3ccccc23)c1 | 22.9% | 0.731 µM [rising, partial curve, poor fit] | 13 µM [rising, partial curve]
30 | COc1ccc(NC(=O)c2nn(C)c(C(=O)Nc3ccc(OC)cc3)c2[N+](=O)[O-])cc1 | 78.3% | 18.4 µM [rising, partial curve] | 0.58 µM [rising, single point]
31 | N#Cc1c(N)n(CCc2ccc(F)cc2)c2nc3ccccc3nc12 |  | 0.366 µM [rising, full curve] | 1.16 µM [rising, full curve]
32 | Clc1ccc(Cc2noc(Cc3ccccc3)n2)cc1Cl |  |  | 0.58 µM [falling, single point]
33 | COc1ccc(C2=NN(c3nc(-c4ccccc4)c(CC(=O)O)s3)C(c3ccco3)C2)cc1 (stereo not given) | 40.3% | 2.31 µM [rising, partial curve] | 1.46 µM [rising, partial curve]
34 | CC(C)C12CCC(C(=O)O)C(C1)C(=O)O2 (stereo not given) | 1.76% |  | 18.4 µM [rising, single point]
35 | CCNC(=S)N/N=C/c1ccc(OCC(=O)Nc2ccc(OC)cc2)c(OC)c1 | 33.9% | 29.1 µM [rising, single point] | 2.06 µM [rising, full curve]
36 | Cc1c(/C=N/NC(=O)C2(O)c3ccccc3-c3ccccc32)cnn1C | -0.197% | 6.51 µM [falling, single point] | 6.51 µM [falling, single point]
